Measurements reported in patent US9458128B2, “Catechol O-methyltransferase activity inhibiting compounds” (Orion Corporation, priority 2012, dated 2016).
At least one structure is not confirmed: it was looked up by name or label, or the drawing left a doubt.

Experiment: Determination of levodopa concentration in rat plasma
Format: in vivo
Settings: entacapone = 1.00, adult male Wistar rats, COMT inhibitor dosed orally with levodopa+carbidopa
Experimental: Levodopa concentration in rat plasma was determined substantially as described in e.g. Kim, T. K. et al. European Journal of Pharmaceutical Sciences, 38 (2009) 525. The studies were performed in adult male Wistar rats. The COMT inhibitor was dosed orally over a range of doses and several sampling time points were chosen between 0 min and 300 min after drug administration (levodopa+carbidopa and COMT inhibitor). Blood samples were collected by cardiac puncture under CO2 anaesthesia into pre-cooled K2EDTA tubes and kept on ice until the separation of plasma by centrifugation. For levodopa analysis, 75 μl of separated plasma was pipetted without delay into pre-cooled polypropylene tubes containing a conserving agent. All the samples were stored at −80° C. nominal until analyzed. Plasma levels of levodopa were determined by LC-MS/MS (or HPLC). Standard pharmacokinetic methods were used to evaluate the concentration—time data by non-compartmental analysis modeling. The analyses were performed using WinNonlin® Professional v. 5.0.1.

SMILES: CCN(CC)C(=O)/C(C#N)=C/c1cc(O)c(O)c([N+](=O)[O-])c1 [Entacapone, reference compound]
- Relative levodopa concentration: 1.00
